Results from patent US20040191913A1, “Method of evaluation of antioxidation ability by measuring redox balance in vivo” (priority 2002, published 2004).
For at least one compound, name, drawing or mass did not settle the structure.

Assay: Radical removability by magnetic spin resonator (attenuation of the DMPO-OOL signal)
Type: biochemical
Conditions: DMPO-OOL signal intensity, 10 mM DMPO, 1 minute after start of reaction
Procedure: The antioxidation index is obtained by indexing the radical removability, R that is determined by the use of a magnetic spin resonator in the manner mentioned below, within a range of from 1 to 10points. The determination with a magnetic spin resonator is effected as follows: The DMPO-OOL radical resulting from trapping of a butylhydroperoxide radical by a spin trapping agent, 5,5-dimethyl-1-pyrroline-N-oxide (DMPO) is quantitatively determined by the use of a magnetic spin resonator, and a serum sample is added to the system to determine the degree of signal intensity attenuation in the system. […] Radical Removability R=[DMPO]/50% Inhibition Concentration.
Preferably, the determination with a magnetic spin resonator is effected as follows: 100 mM butylhydroperoxide, 50 μg/ml methemoglobin, 10 mM DMPO and 0.1 mM diethylenetriamine-pentaacetic acid are reacted in 10 mM phosphate buffer. One minute after the start of the reaction, the DMPO-OOL signal intensity is measured by the use of a magnetic spin resonator.

Q: With C=CC1=C(C)/C(=C/c2[nH]c(Cc3[nH]c(/C=C4\NC(=O)C(C)=C4C=C)c(C)c3CCC(=O)O)c(CCC(=O)O)c2C)NC1=O [Bilirubin] as the compound, how does the “50% Inhibition Concentration” value read?
A: >10 mg/dL
